Values quoted from earlier work in patent publication US20050153288A1, “Methods for identifying gibberellin responsive genes using cultured vegetable cells” (priority 2001, published 2005).

Tested on: α-amylase
Settings: cited from earlier work

CN[C@@H]1C[C@H]2O[C@@](C)([C@@H]1OC)n1c3ccccc3c3c4c(c5c6ccccc6n2c5c31)C(=O)NC4 [staurosporine]
inhibition of gibberellin's induction of α-amylase: hardly inhibited induction
